These are yes or no findings as the source states them, for the method shown. Binding seen in cells or lysates may run through a third protein. Here binding means that the protein was enriched with, or labelled near, the bait; the list need not be complete.

Chains of the proteins cited; added tags and fusions are not shown. Lines headed by an entry give the natural chain unless they say otherwise; changes in a name come on top.
UniProt P03372: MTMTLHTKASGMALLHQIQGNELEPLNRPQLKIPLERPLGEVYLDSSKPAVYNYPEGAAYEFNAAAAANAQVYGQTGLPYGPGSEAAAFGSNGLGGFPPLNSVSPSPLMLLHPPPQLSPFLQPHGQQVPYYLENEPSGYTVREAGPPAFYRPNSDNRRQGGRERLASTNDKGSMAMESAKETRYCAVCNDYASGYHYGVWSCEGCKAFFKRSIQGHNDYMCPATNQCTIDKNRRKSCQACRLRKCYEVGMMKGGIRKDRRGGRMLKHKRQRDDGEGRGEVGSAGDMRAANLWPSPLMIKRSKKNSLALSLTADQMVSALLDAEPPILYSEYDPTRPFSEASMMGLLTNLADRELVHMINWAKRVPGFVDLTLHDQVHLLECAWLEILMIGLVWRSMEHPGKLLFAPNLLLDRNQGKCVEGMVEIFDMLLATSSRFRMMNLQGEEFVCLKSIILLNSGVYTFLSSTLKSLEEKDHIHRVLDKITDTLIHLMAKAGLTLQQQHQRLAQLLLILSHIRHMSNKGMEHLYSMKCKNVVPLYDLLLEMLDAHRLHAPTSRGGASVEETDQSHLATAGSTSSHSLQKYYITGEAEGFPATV
UniProt Q92793: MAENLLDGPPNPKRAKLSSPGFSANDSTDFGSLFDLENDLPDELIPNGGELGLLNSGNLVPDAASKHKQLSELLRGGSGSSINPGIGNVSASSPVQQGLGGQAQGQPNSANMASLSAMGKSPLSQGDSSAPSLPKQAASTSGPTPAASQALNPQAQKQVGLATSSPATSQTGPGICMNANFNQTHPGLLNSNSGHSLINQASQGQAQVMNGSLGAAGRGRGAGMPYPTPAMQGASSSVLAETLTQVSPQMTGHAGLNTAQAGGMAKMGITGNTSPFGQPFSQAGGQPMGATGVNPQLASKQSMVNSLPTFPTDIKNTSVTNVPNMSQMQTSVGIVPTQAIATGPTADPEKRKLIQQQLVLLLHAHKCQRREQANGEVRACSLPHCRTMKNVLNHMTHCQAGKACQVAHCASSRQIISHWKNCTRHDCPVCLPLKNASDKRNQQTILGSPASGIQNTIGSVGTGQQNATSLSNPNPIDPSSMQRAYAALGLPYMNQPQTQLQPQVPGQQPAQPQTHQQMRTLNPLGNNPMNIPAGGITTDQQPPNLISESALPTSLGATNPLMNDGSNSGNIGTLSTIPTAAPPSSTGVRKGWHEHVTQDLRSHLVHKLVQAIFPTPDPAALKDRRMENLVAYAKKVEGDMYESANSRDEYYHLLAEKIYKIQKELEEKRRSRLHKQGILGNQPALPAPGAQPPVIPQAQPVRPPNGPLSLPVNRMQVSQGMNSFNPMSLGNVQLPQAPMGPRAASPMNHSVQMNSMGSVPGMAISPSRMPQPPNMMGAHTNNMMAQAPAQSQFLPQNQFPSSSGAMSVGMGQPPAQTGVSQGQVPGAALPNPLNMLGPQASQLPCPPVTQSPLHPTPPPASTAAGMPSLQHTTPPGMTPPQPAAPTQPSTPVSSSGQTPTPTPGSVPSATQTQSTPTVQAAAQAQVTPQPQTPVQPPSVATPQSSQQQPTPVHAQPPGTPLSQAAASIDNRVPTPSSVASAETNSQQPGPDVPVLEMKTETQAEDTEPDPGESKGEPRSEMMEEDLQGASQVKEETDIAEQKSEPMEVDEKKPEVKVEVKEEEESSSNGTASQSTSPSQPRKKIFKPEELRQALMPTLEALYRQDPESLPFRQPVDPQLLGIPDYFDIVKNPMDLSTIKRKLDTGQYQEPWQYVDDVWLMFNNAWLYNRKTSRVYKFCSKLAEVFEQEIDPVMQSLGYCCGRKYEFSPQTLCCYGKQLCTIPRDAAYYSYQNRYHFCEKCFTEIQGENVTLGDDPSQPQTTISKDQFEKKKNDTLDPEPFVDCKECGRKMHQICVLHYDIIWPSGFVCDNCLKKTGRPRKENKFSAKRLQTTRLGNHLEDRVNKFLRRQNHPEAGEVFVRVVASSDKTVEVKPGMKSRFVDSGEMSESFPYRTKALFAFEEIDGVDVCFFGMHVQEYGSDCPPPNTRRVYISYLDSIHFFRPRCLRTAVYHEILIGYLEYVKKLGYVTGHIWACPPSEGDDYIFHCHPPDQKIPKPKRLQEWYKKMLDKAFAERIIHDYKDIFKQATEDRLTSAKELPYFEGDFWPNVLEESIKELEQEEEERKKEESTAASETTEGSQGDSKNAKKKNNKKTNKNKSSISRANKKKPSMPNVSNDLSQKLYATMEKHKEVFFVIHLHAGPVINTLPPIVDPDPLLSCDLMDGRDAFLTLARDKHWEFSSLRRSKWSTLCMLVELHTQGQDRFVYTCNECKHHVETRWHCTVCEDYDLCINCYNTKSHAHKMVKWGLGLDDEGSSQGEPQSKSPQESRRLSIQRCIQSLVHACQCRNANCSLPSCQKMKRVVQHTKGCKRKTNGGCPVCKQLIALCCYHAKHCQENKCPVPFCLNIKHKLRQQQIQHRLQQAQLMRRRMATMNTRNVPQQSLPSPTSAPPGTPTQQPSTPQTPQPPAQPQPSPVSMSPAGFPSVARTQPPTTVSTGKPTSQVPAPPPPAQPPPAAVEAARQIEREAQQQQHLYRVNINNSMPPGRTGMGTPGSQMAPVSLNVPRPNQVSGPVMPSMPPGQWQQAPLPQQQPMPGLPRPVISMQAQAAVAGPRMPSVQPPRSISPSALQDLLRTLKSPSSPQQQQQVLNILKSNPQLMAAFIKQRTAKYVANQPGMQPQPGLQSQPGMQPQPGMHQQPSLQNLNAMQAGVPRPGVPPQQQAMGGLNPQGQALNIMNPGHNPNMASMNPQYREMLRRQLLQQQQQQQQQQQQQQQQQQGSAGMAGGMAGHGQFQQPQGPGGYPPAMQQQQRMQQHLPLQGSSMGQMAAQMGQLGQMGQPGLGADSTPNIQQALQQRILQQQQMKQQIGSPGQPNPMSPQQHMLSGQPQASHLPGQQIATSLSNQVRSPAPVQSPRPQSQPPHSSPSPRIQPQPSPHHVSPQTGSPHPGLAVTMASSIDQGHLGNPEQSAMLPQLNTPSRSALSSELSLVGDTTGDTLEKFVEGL
UniProt Q09472: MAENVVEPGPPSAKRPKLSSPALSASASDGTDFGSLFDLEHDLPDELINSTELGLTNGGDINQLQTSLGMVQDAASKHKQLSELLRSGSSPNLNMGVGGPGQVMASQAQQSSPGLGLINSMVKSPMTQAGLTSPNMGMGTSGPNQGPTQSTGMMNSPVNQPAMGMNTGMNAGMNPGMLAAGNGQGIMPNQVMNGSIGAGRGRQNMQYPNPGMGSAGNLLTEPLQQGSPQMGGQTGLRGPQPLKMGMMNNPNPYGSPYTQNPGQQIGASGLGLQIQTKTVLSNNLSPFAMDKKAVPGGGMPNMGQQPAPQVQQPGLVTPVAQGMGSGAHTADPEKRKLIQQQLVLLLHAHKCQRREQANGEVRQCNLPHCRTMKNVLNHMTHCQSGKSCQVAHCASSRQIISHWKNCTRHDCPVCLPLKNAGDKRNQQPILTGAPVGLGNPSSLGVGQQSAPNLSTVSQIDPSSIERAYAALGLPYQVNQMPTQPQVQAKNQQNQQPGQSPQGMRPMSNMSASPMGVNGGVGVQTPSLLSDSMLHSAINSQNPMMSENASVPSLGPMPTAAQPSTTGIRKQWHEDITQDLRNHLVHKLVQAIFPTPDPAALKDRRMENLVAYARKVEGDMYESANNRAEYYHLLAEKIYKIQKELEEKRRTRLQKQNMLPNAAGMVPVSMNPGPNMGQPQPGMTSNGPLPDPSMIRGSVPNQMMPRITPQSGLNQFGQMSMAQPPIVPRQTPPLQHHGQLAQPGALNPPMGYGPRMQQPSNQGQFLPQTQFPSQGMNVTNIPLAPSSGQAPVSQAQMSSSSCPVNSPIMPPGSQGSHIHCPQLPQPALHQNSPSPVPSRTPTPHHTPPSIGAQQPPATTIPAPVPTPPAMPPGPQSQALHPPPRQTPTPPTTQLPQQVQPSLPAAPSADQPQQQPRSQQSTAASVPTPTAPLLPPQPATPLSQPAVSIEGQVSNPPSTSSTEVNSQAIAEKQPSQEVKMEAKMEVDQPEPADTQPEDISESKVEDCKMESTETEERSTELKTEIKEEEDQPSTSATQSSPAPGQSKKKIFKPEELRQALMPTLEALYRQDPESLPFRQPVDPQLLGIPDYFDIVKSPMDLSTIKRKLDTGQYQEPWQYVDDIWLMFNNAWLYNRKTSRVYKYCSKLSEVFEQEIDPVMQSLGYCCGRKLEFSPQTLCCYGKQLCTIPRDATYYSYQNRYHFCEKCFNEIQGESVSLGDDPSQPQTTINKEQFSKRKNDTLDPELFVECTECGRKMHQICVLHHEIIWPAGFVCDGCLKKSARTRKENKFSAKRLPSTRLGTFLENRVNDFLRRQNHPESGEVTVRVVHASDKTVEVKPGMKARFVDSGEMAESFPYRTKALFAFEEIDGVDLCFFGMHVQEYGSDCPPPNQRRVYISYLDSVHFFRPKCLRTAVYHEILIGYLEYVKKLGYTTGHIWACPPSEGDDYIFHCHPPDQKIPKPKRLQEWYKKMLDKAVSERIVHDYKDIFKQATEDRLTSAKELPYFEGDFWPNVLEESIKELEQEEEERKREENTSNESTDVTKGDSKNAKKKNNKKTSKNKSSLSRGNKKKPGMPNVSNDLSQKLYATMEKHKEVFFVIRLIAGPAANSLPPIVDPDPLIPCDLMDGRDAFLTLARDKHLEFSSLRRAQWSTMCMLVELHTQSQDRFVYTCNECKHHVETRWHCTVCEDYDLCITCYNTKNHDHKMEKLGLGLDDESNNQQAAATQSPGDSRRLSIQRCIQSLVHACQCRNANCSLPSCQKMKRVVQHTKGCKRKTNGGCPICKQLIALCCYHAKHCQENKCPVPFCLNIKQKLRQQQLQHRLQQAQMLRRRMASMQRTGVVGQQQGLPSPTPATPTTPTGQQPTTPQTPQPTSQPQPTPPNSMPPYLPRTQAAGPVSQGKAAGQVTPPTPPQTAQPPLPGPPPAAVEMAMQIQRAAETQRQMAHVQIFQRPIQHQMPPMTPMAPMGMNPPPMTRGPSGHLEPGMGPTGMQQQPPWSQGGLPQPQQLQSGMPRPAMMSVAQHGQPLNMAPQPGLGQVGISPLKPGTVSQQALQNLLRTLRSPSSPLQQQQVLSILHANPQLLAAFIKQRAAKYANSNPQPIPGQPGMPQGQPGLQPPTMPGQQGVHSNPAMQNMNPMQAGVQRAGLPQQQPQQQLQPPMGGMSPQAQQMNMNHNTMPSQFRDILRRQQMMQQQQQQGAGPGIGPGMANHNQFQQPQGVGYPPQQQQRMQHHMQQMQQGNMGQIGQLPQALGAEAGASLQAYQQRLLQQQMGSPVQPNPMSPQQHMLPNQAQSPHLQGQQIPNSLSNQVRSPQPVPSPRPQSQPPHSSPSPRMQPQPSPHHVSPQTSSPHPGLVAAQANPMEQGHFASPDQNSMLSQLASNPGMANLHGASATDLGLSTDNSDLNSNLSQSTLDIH

The target of the assay is Y537S ERα (recombinant, purified) (UniProt P03372). The assay can be described thus: affinity purification with mass spectrometry; ERE DNA pulldown: 1 ug purified receptor, 2-2.5 mg HeLa S3 nuclear extract, 15 pmol 4xERE-E4 DNA on Dynabeads M-280 streptavidin; no E2; label-free quantitative MS, normalised to ESR1 N-terminal peptides; only the target purified.

As for “CBP, endogenous (from UniProt Q92793 1-2442)”, the binding result was “binds”.

“p300, endogenous (from UniProt Q09472 1-2414)”: the binding entry was “binds”.

Source of the values: PMC6095836.
